For some of these results: No signal at the amounts used counts as a negative. Construct, isoform or probe ends are uncertain for at least one entry.
What was measured:
[1] = system: human alpha-thrombin (Homo sapiens); assay: switchSENSE; settings: 50 mM Tris, no added salt, non-specific binding at >= 125 nM thrombin; 10 mM Tris-HCl pH 7.4, 140 mM XCl (K, Na, NH4 or Li), 0.05% Tween 20, 50 uM EDTA, 50 uM EGTA, 25 C, flow 2000 uL/min; commercial protein; label: dye on immobilized strand; letters put together from the description
[2] = system: human alpha-thrombin, cNL-B48 conjugate (Homo sapiens); assay: switchSENSE; settings: 140 mM KCl, thrombin immobilized, 10 mM Tris-HCl pH 7.4, 140 mM XCl (K, Na, NH4 or Li), 0.05% Tween 20, 50 uM EDTA, 50 uM EGTA, 25 C, flow 2000 uL/min, commercial protein, protein details: covalently amine-coupled to 5' end of cNL-B48 DNA

Question: Does “ATCAGCGTTCGATGCTTCCGACTAATCAGCCATATCAGCTTACGACTA (double strand) [dsDNA nanolever (NL-B48/cNL-B48)]” bind [1]?
Answer: binds

Question: How did the Kd ([2]; kon 4.6e7 M-1s-1, koff 2.8e-1 s-1, folded or branched DNA) turn out when “GGTTGGTGTGGTTGGTTTATCAGCGTTCGATGCTTCCGACTAATCAGCCATATCAGCTTACGACTA [TBA (in solution)]” was run?
Answer: 6.2 nM

Question: Does “GTGTGGTGTGTGTGGTTTATCAGCGTTCGATGCTTCCGACTAATCAGCCATATCAGCTTACGACTA [TBAsc (in solution)]” bind ([2]; single-stranded DNA)?
Answer: no binding

Question: Does “TTTGGGTTAGGGTTAGGGTTAGGGTTTATCAGCGTTCGATGCTTCCGACTAATCAGCCATATCAGCTTACGACTA [HTA (in solution)]” bind ([2]; folded or branched DNA)?
Answer: no binding

Reference: paper PMC6718989
